The source of these data is article PMC6908259.

No constants are given. Whether binding was seen depends on the method and setting. In cells and extracts the contact can be indirect. Some binding calls cover weakened binding; strength is not graded here. Sequences can lack the tags named with a protein.

The labels stand for the following.
T1: GFP-tagged AC40 subunit of RNA polymerase III (S. cerevisiae) (UniProt P07703)
T1 sequence: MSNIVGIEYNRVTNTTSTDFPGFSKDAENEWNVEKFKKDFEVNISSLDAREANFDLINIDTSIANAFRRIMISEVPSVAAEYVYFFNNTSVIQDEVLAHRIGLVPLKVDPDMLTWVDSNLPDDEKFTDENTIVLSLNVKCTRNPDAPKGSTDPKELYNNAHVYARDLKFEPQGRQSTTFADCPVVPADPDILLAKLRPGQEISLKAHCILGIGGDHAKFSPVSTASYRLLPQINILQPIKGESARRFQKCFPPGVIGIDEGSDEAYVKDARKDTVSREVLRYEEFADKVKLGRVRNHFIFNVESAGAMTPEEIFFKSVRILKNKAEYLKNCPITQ

B1: C53 subunit of RNA polymerase III (protein, UniProt P25441 1-422)
chain: MSSNKGNGRLPSLKDSSSNGGGSAKPSLKFKPKAVARKSKEEREAAASKVKLEEESKRGNDKKHFNNKNKRVTGAGGQQRRMAKYLNNTHVISSGPLAAGNFVSEKGDLRRGFIKSEGSGSSLVQKGLETIDNGAESSENEAEDDDNEGVASKSKKKFNMGKEFEARNLIEDEDDGESEKSSDVDMDDEEWRSKRIEQLFPVRPVRVRHEDVETVKREIQEALSEKPTREPTPSVKTEPVGTGLQSYLEERERQVNEKLADLGLEKEFQSVDGKEAAAELELLNADHQHILRKLKKMNNKPERFMVFQLPTRLPAFERPAVKEEKEDMETQASDPSKKKKNIKKKDTKDALSTRELAGKVGSIRVHKSGKLSVKIGNVVMDIGKGAETTFLQDVIALSIADDASSAELLGRVDGKIVVTPQI
B2: HA-tagged C160 subunit of RNA polymerase III (protein, UniProt P04051 1-1460)
chain: MKEVVVSETPKRIKGLEFSALSAADIVAQSEVEVSTRDLFDLEKDRAPKANGALDPKMGVSSSSLECATCHGNLASCHGHFGHLKLALPVFHIGYFKATIQILQGICKNCSAILLSETDKRQFLHELRRPGVDNLRRMGILKKILDQCKKQRRCLHCGALNGVVKKAAAGAGSAALKIIHDTFRWVGKKSAPEKDIWVGEWKEVLAHNPELERYVKRCMDDLNPLKTLNLFKQIKSADCELLGIDATVPSGRPETYIWRYLPAPPVCIRPSVMMQDSPASNEDDLTVKLTEIVWTSSLIKAGLDKGISINNMMEHWDYLQLTVAMYINSDSVNPAMLPGSSNGGGKVKPIRGFCQRLKGKQGRFRGNLSGKRVDFSGRTVISPDPNLSIDEVAVPDRVAKVLTYPEKVTRYNRHKLQELIVNGPNVHPGANYLLKRNEDARRNLRYGDRMKLAKNLQIGDVVERHLEDGDVVLFNRQPSLHRLSILSHYAKIRPWRTFRLNECVCTPYNADFDGDEMNLHVPQTEEARAEAINLMGVKNNLLTPKSGEPIIAATQDFITGSYLISHKDSFYDRATLTQLLSMMSDGIEHFDIPPPAIMKPYYLWTGKQVFSLLIKPNHNSPVVINLDAKNKVFVPPKSKSLPNEMSQNDGFVIIRGSQILSGVMDKSVLGDGKKHSVFYTILRDYGPQEAANAMNRMAKLCARFLGNRGFSIGINDVTPADDLKQKKEELVEIAYHKCDELITLFNKGELETQPGCNEEQTLEAKIGGLLSKVREEVGDVCINELDNWNAPLIMATCGSKGSTLNVSQMVAVVGQQIISGNRVPDGFQDRSLPHFPKNSKTPQSKGFVRNSFFSGLSPPEFLFHAISGREGLVDTAVKTAETGYMSRRLMKSLEDLSCQYDNTVRTSANGIVQFTYGGDGLDPLEMEGNAQPVNFNRSWDHAYNITFNNQDKGLLPYAIMETANEILGPLEERLVRYDNSGCLVKREDLNKAEYVDQYDAERDFYHSLREYINGKATALANLRKSRGMLGLLEPPAKELQGIDPDETVPDNVKTSVSQLYRISEKSVRKFLEIALFKYRKARLEPGTAIGAIGAQSIGEPGTQMTLKTFHFAGVASMNVTLGVPRIKEIINASKVISTPIINAVLVNDNDERAARVVKGRVEKTLLSDVAFYVQDVYKDNLSFIQVRIDLGTIDKLQLELTIEDIAVAITRASKLKIQASDVNIIGKDRIAINVFPEGYKAKSISTSAKEPSENDVFYRMQQLRRALPDVVVKGLPDISRAVINIRDDGKRELLVEGYGLRDVMCTDGVIGSRTTTNHVLEVFSVLGIEAARYSIIREINYTMSNHGMSVDPRHIQLLGDVMTYKGEVLGITRFGLSKMRDSVLQLASFEKTTDHLFDAAFYMKKDAVEGVSECIILGQTMSIGTGSFKVVKGTNISEKDLVPKRCLFESLSNEAALKAN
B3: C82 subunit of RNA polymerase III (protein, UniProt P32349 1-654)
chain: MDELLGEALSAENQTGESTVESEKLVTPEDVMTISSLEQRTLNPDLFLYKELVKAHLGERAASVIGMLVALGRLSVRELVEKIDGMDVDSVKTTLVSLTQLRCVKYLQETAISGKKTTYYYYNEEGIHILLYSGLIIDEIITQMRVNDEEEHKQLVAEIVQNVISLGSLTVEDYLSSVTSDSMKYTISSLFVQLCEMGYLIQISKLHYTPIEDLWQFLYEKHYKNIPRNSPLSDLKKRSQAKMNAKTDFAKIINKPNELSQILTVDPKTSLRIVKPTVSLTINLDRFMKGRRSKQLINLAKTRVGSVTAQVYKIALRLTEQKSPKIRDPLTQTGLLQDLEEAKSFQDEAELVEEKTPGLTFNAIDLARHLPAELDLRGSLLSRKPSDNKKRSGSNAAASLPSKKLKTEDGFVIPALPAAVSKSLQESGDTQEEDEEEEDLDADTEDPHSASLINSHLKILASSNFPFLNETKPGVYYVPYSKLMPVLKSSVYEYVIASTLGPSAMRLSRCIRDNKLVSEKIINSTALMKEKDIRSTLASLIRYNSVEIQEVPRTADRSASRAVFLFRCKETHSYNFMRQNLEWNMANLLFKKEKLKQENSTLLKKANRDDVKGRENELLLPSELNQLKMVNERELNVFARLSRLLSLWEVFQMA

This experiment has as its target T1, GFP-tagged AC40 subunit of RNA polymerase III (S. cerevisiae). The experiment in a line: co-IP; extracts of yeast expressing AC40-GFP and C160-HA incubated with magnetic beads coated with anti-GFP antibody, extensive washes, Western blot (GFP, HA, C82, C53); cells untreated, or treated with EtOH or 100 ug/ml MPA for 2 h. For orientation: A western blot detects proteins with antibodies after separation by electrophoresis.
In the case of B1, the binding result was “binds”. B2: the binding result is given as “binds”. Consider B3, for which the binding result is reported as “binds”.
